# Measurements taken from PubChem BioAssay AID485314 (National Center for Advancing Translational Sciences (NCATS), 2010).
# The campaign covered roughly 340,000 compounds. About 4,500 (1.3%) were called active. The shares of active, inactive and inconclusive entries below differ from those in the screen. The call rests on the fitted dose curve; in most records, active means well fitted inhibition curve with a large enough effect; inconclusive means small, poorly fitted or top-dose-only effect, or another doubt; inactive means no such curve, though single readings can be large or run the other way. Potencies beside an inconclusive call are fits to weak or partial responses and may not hold up.
# Target: DNA polymerase beta (Homo sapiens) (UniProt P06746)
# Experiment: qHTS Assay for Inhibitors of DNA Polymerase Beta
# Conditions: Pol beta primer extension/strand displacement, fluorescence kinetic; activity change, negative = inhibition: at 114 µM (top of the series)
# Method in brief: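 Preincubation: enzyme (10 nM) with compound, 15 min, RT. Reaction: substrate added to 50 nM final. Reads: 0 and 10 min. Analysis: normalized, Hill fit.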
# On the % scale 0 is the no-effect control and ±100 the full control effect; potency means the concentration at half of the fitted maximal effect.
Structure (SMILES),Potency,"activity change, negative = inhibition"
COc1c(F)c(F)c(C(=O)Nc2ccc(NC(=O)Cc3ccccc3)cc2)c(F)c1F,"inconclusive: 89.1 µM [inhibitor, single point]",
Cc1ccc2c(=O)cc(C(=O)Nc3ccc(S(=O)(=O)N(C)Cc4ccccc4)cc3)oc2c1C,,inactive: 15.5%
Cc1ccccc1NC(=O)CN1C(=O)N/C(=C\c2cccn2-c2cccc(C(=O)O)c2)C1=O,active: 2.24 µM,
COc1ccc(-c2noc(CC(=O)Nc3ccc(Br)cc3C)n2)cc1,,inactive: -0.612%
C#CCN1C(=O)S/C(=C\c2ccc(-c3ccc(C(=O)O)cc3C)o2)C1=O,active: 15.8 µM,
COc1ccc(-c2nnc(COc3ccc4ccccc4c3)o2)cc1OC,"inconclusive: 10 µM [inhibitor, partial curve]",
COc1ccc(NC(=O)C2=CC(c3ccc4c(c3)OCO4)=NS(=O)(=O)N2C)cc1,"inconclusive: 39.8 µM [inhibitor, full curve]",
Oc1ccc(/C=N/N=C/c2ccc(O)c(O)c2)cc1O,active: 0.447 µM,
COc1ccc(-c2ccc(/C=N/N3C(=O)C4C5C=CC(C6CC56)C4C3=O)o2)c([N+](=O)[O-])c1 (stereo not drawn),"inconclusive: 56.2 µM [inhibitor, partial curve]",
Fc1ccc(-n2cc(-c3ccccc3)c3c(NCCc4ccccc4)ncnc32)cc1,"inconclusive: 89.1 µM [inhibitor, single point]",
CCCN1CCC(=O)N([C@H](CN=[N+]=[N-])Cc2ccccc2)CC1,"inconclusive: 100 µM [inhibitor, single point]",
CCOc1ccc(/C=C2\SC(=S)N(NC(=O)c3ccncc3)C2=O)cc1OC,"inconclusive: 89.1 µM [inhibitor, single point]",
O=C(Cc1ccc(-n2c(=O)c3sccc3n(Cc3ccc(F)cc3)c2=O)cc1)NCc1ccco1,"inconclusive: 22.4 µM [inhibitor, partial curve]",
COc1ccc(NC(=O)c2cc3c(s2)CCC3)cc1S(=O)(=O)N1CCOCC1,"inconclusive: 12.6 µM [inhibitor, full curve]",
O=C(O)C1[C@H]2C(=O)N(Cc3cccs3)C[C@]23C=C[C@H]1O3 (stereo partly drawn),"inconclusive: 89.1 µM [inhibitor, single point]",
COC(=O)c1ccc(Nc2cc(C)nc(-c3ccccc3O)n2)cc1,"inconclusive: 28.2 µM [inhibitor, single point]",
O=C(Cn1nnc(-c2ccccc2)n1)NNC(=O)c1ccccc1,"inconclusive: 89.1 µM [inhibitor, single point]",
Oc1c(Br)cc(/C=N/n2c(-c3ccccc3)n[nH]c2=S)c(Br)c1O,active: 0.251 µM,

# Rewritten tab-delimited: part of the list above
Structure (SMILES)	Potency	activity change, negative = inhibition
COc1ccc(-c2ccc(/C=N/N3C(=O)C4C5C=CC(C6CC56)C4C3=O)o2)c([N+](=O)[O-])c1 (stereo not drawn)	inconclusive: 56.2 µM [inhibitor, partial curve]	
Fc1ccc(-n2cc(-c3ccccc3)c3c(NCCc4ccccc4)ncnc32)cc1	inconclusive: 89.1 µM [inhibitor, single point]	
